In the supplement of paper PMC10849652:
Some of the results follow.

Amino acid sequences for entries named in this document (tags omitted). A change or cut given only in a name is not applied to a line headed by its entry.
UniProt Q9Y575: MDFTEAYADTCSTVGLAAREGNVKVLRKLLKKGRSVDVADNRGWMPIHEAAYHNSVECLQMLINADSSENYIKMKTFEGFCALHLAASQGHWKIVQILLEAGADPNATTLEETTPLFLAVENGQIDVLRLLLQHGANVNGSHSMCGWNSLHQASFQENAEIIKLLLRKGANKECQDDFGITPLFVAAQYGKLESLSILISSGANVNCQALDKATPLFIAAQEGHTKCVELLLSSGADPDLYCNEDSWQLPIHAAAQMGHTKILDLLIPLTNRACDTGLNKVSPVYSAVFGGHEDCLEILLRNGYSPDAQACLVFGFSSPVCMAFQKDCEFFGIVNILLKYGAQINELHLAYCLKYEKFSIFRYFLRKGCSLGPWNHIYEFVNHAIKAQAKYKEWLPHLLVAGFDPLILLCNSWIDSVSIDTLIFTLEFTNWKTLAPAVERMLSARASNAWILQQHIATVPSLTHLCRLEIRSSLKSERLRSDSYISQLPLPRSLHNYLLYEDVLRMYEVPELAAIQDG
UniProt P25705: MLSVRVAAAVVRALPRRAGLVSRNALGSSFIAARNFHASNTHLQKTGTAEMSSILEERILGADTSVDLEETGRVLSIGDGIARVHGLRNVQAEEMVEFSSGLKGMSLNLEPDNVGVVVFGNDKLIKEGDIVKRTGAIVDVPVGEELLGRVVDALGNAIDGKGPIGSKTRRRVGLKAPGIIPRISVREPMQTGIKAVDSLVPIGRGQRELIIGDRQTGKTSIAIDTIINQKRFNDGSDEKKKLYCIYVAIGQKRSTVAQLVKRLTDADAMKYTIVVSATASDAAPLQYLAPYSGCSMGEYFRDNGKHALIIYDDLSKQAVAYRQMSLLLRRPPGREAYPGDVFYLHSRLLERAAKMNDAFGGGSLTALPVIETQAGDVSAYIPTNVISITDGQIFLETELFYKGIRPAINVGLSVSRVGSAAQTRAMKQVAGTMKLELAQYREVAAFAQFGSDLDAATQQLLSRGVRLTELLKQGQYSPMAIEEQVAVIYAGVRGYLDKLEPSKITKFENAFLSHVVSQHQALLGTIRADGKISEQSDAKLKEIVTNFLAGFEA
UniProt Q9H1I8: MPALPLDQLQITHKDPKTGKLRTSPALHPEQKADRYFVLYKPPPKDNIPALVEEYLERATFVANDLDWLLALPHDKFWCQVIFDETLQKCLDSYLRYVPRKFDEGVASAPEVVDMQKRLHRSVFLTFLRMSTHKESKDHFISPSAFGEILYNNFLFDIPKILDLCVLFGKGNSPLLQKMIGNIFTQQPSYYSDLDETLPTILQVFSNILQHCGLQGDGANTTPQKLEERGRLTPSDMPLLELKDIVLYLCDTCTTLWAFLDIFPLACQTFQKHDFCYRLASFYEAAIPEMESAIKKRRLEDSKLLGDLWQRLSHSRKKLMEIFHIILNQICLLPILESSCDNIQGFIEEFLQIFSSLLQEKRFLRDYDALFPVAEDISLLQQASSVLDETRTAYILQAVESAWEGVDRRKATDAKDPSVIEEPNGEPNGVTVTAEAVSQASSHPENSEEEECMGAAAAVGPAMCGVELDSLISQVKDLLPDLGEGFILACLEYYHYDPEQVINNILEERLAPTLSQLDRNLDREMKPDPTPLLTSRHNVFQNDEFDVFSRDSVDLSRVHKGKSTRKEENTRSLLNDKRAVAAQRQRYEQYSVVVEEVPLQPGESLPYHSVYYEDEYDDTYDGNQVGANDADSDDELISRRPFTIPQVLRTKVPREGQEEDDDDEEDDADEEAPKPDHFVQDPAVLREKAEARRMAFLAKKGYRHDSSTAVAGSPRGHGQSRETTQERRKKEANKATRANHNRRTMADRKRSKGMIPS
UniProt Q96GX2: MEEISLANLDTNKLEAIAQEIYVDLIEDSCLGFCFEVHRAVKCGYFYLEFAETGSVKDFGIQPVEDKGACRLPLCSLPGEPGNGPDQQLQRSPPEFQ
UniProt P04424, whole entry, looked up: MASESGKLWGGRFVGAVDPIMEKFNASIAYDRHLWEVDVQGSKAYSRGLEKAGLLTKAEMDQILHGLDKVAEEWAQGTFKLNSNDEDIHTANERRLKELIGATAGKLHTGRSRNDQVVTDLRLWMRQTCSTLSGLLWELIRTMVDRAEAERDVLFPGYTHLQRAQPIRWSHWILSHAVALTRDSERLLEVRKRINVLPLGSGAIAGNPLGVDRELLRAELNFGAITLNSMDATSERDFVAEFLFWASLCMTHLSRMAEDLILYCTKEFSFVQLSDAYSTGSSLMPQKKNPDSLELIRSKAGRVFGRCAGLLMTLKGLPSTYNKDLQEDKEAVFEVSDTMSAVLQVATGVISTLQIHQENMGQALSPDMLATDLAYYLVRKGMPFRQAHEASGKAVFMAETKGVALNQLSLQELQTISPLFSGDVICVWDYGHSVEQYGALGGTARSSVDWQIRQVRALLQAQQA
UniProt Q9H0Y0: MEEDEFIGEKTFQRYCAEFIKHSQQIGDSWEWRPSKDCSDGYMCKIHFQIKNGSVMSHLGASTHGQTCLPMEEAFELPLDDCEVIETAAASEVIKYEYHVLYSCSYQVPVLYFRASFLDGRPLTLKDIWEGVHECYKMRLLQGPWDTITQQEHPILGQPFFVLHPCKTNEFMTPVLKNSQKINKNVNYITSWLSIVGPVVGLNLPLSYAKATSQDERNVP
UniProt Q6Y288: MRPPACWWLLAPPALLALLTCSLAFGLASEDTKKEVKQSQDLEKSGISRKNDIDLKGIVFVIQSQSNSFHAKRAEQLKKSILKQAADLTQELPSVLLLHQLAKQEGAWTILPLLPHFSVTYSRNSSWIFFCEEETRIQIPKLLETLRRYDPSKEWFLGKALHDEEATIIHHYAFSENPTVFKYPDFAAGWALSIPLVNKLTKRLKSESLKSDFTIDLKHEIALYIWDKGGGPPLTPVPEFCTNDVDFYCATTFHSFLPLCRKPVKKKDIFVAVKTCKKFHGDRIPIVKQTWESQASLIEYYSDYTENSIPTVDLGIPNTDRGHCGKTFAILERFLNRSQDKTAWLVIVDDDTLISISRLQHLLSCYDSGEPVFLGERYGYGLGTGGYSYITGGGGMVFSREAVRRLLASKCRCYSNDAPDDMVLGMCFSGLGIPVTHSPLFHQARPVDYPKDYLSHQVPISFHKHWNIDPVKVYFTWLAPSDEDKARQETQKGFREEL
UniProt Q8NHH9: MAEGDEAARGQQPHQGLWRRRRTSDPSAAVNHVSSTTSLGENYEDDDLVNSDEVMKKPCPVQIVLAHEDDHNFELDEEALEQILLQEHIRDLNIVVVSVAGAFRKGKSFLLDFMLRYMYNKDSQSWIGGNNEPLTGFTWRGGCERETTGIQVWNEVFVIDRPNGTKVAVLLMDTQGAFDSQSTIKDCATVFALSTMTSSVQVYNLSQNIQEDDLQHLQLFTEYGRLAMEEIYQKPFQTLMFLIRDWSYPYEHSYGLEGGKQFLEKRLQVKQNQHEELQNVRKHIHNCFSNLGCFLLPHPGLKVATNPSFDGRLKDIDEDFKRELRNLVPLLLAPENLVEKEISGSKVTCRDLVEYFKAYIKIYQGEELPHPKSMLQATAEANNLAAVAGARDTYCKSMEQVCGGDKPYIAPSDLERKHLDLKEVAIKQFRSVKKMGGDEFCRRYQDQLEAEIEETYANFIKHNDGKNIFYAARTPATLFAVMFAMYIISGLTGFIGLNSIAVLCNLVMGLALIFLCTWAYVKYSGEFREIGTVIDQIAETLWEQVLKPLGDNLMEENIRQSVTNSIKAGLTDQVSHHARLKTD
UniProt O43681: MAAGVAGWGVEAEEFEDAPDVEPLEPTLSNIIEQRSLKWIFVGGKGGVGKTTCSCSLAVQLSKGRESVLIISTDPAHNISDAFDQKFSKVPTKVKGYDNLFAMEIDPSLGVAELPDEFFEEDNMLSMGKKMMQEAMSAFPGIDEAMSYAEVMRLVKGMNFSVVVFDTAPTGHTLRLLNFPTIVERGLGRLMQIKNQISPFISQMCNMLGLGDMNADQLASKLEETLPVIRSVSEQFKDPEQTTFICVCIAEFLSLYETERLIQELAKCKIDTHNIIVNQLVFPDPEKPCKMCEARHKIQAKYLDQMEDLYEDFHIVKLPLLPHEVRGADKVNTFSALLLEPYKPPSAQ
UniProt Q9H7T9: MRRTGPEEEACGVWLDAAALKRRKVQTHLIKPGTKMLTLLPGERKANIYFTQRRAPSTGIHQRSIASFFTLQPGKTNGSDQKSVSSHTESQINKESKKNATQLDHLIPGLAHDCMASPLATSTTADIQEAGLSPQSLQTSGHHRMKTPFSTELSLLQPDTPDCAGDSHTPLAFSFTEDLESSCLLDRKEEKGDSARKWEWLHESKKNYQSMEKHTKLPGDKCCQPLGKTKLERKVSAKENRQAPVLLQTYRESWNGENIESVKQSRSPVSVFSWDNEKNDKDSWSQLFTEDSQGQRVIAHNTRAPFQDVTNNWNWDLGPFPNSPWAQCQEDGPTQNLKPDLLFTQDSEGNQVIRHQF
UniProt P27449, whole entry, looked up: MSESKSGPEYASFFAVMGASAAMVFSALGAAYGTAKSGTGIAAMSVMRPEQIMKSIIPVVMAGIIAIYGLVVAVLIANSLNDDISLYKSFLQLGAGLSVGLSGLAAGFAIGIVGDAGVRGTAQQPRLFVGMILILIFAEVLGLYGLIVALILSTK
UniProt P35670: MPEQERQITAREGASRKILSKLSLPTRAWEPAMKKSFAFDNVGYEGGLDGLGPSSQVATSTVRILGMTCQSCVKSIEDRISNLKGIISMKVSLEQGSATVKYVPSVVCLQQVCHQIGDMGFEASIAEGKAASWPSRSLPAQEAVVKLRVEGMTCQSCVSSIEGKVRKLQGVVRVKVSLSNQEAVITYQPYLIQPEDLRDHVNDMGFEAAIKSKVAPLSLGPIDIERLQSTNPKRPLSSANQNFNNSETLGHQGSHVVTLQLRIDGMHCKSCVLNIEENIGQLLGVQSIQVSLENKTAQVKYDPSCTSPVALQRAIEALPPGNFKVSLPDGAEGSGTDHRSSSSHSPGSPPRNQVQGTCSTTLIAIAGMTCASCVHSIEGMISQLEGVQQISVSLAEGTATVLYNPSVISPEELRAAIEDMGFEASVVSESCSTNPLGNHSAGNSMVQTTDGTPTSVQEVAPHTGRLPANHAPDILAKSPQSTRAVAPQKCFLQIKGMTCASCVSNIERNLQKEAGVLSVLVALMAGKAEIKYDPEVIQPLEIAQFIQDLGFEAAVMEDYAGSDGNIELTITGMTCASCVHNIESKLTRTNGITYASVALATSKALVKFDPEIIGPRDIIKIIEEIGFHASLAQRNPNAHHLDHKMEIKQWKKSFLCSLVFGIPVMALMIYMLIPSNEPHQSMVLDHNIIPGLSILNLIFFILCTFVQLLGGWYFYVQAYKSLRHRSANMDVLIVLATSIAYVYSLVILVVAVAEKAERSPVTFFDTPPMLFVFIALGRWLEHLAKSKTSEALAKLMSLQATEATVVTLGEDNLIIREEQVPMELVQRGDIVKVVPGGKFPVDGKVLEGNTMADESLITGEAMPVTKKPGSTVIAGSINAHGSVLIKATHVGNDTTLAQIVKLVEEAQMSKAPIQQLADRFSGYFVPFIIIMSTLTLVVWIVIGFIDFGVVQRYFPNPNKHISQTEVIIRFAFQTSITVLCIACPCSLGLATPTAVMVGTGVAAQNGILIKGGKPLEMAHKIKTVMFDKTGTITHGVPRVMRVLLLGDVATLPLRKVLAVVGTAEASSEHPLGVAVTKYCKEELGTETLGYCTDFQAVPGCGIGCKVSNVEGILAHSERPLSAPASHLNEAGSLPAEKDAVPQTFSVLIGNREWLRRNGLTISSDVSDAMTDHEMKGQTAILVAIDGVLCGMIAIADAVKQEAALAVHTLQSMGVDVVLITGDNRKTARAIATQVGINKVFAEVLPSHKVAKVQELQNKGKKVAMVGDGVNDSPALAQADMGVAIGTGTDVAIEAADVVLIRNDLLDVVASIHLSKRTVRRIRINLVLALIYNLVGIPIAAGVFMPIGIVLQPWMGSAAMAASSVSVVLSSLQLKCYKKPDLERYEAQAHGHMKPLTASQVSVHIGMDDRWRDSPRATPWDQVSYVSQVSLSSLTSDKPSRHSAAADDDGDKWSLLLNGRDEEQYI
UniProt Q13825: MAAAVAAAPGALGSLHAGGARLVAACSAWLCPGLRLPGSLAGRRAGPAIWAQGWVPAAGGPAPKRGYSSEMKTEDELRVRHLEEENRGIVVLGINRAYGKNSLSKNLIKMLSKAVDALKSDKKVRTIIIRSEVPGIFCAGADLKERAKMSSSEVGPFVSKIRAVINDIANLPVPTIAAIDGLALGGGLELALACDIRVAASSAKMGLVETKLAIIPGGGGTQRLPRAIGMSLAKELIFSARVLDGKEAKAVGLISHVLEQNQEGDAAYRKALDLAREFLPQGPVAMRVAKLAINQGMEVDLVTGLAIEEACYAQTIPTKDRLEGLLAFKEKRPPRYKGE

compound: COC(=O)N[C@@H](C)CNc1nccc(-c2cn(C(C)C)nc2-c2cc(Cl)cc(NS(C)(=O)=O)c2F)n1 [encorafenib]; assay: log2 fold change, soluble protein after heating vs DMSO (PISA); higher = thermal stabilisation; K562 lysate, 10 uM; active = over 0.2 and 3.5 SD of the protein, either way, in both replicates (recomputed)
Outline: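 A 30 min treatment with 10 μM compound was applied to crude K562 extract at 1 mg/mL protein in PBS pH 7.4 with 1 mM MgCl2. Heating for 3 min spanned 48°C-58°C, after which aliquots were pooled, adjusted to 0.5% NP-40 at 4°C and spun at 21,000xg for 90 min. TMTpro 16plex LC-MS/MS of the supernatant, with channel sums equalised, gave values recorded as log-two fold change in thermal stability against solvent controls, from duplicates.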

log2 fold change, inactive:
ASB3 isoform 3 (UniProt Q9Y575) 0.087
ATRN (UniProt O75882) 0.099
ATP5F1A (UniProt P25705) 0
ASCC2 (UniProt Q9H1I8) 0.007
ATXN7L3B (UniProt Q96GX2) -0.136
ASL (UniProt P04424) -0.015
ATG10 (UniProt Q9H0Y0) 0.024
ATG14 (UniProt Q6ZNE5) -0.321
B3GLCT (UniProt Q6Y288) 0
ATL2 (UniProt Q8NHH9) 0.043
ASPM (UniProt Q8IZT6) -0.002
ATE1 isoform 2 (UniProt O95260) -0.013
ASNA1 (UniProt O43681) -0.008
AUNIP isoform 2 (UniProt Q9H7T9) 0.03
ATAD1 (UniProt Q8NBU5) -0.049
AURKB isoform 5 (UniProt Q96GD4) -0.054
ATP6V0C (UniProt P27449) 0.093
ATXN1L (UniProt P0C7T5) 0.181
ATP7B (UniProt P35670) 0.056
ATXN2L (UniProt Q8WWM7) 0.07
ATXN2 (UniProt F8WB05) -0.033
AUH (UniProt Q13825) 0.015
ATRX (UniProt P46100) 0.04

An excerpt from the list above:
log2 fold change, inactive:
ATL2 (UniProt Q8NHH9) 0.043
ASPM (UniProt Q8IZT6) -0.002
